In this experiment the target is Hda1-TAP (Candida albicans) (UniProt Q5A960). The experiment is described as follows: co-IP; lysates (10 mg protein) of C. albicans expressing Myc-Brg1 and Hda1-TAP, precipitated with IgG agarose beads, blot with anti-c-Myc; cells grown in YEPMaltose at 25°C or 37°C with or without 10 nM rapamycin.

By UniProt entry, the sequences of proteins in these tests, tags left out.
UniProt Q5A960: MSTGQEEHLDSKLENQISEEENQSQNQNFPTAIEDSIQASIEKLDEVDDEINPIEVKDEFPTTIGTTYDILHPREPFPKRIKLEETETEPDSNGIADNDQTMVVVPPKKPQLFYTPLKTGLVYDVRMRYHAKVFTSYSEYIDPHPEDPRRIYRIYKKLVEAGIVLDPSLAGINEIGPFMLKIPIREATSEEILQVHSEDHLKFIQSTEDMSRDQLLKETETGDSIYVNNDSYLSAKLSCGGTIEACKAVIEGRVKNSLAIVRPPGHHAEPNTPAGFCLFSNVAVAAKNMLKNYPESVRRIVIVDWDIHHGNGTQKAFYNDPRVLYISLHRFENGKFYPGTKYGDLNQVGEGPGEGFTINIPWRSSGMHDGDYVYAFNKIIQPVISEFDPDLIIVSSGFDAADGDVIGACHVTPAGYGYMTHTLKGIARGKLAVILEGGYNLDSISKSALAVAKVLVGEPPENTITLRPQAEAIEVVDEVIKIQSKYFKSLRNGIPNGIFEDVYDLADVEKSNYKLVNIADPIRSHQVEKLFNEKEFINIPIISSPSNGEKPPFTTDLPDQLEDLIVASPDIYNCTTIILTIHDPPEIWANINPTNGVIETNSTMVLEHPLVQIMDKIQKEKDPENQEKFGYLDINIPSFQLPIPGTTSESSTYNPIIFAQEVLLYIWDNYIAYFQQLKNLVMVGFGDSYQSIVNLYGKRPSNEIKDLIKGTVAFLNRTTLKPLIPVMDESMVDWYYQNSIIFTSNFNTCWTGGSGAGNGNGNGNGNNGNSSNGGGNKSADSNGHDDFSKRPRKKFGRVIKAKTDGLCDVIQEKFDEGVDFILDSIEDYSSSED
UniProt Q59LY1: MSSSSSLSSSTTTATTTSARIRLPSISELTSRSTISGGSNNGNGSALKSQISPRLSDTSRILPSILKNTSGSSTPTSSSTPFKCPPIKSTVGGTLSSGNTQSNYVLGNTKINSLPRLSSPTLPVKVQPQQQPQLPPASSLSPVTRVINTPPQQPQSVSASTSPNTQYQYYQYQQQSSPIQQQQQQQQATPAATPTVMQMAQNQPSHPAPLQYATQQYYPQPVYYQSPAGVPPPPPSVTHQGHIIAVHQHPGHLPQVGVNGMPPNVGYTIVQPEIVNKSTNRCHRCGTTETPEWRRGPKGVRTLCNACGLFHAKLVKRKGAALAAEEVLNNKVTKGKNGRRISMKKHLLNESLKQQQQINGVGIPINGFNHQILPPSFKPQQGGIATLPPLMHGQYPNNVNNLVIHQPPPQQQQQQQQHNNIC

No constants are given. Whether binding was seen depends on the method and setting. Binding seen in cells or lysates may run through a third protein. Some binding calls cover weakened binding; strength is not graded here.

Consider Myc-Brg1 (from UniProt Q59LY1 1-422), for which the binding entry is “binds”.

These data come from article PMC3334898.
